Data on one substance can be found in article PMC4293114.

In the assay the target is T1, endogenous UBF1/2 (upstream binding factor 1) (mouse (endogenous in mouse embryonic fibroblasts / 3T3 cells)) (UniProt P25976).
T1 sequence: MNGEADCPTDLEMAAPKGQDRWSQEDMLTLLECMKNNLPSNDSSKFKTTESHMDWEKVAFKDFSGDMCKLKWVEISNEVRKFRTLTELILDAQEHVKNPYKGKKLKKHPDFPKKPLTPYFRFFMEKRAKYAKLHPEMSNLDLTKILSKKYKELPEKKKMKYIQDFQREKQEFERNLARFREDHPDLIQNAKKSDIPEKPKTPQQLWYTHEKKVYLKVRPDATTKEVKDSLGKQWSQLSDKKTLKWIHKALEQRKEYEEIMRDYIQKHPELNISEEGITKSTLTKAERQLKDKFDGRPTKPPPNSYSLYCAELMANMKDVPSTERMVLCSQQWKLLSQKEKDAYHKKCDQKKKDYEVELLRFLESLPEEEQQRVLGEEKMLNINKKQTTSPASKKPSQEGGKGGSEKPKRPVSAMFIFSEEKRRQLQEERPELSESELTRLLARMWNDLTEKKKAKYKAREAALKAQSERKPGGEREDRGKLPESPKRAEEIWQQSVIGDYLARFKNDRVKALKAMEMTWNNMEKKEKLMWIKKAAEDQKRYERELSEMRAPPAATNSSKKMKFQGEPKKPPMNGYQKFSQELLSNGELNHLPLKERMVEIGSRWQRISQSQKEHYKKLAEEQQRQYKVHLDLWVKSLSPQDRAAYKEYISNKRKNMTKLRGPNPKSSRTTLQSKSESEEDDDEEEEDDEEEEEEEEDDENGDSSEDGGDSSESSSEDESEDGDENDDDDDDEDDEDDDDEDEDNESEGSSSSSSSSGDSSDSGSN
Kind of assay: co-IP; lysates of cells overexpressing full-length GFP-HP1β or GFP-HP1β-ΔCSD, immunoprecipitated with anti-UBF1 (H-300), Western blot of HP1β. In general terms: A western blot detects proteins with antibodies after separation by electrophoresis.

Results are given in words; binding and its absence hold for the method and conditions named. Binding seen in cells or lysates may run through a third protein.

Turning to “GFP-HP1β-ΔCSD (HP1β with a deleted chromo shadow domain) (domain or fragment)”, the binding entry was “no binding”.
